Test results from the supplement of paper PMC10849652.
This is one part of the list.

Protein sequences, listed by entry. Tags and fused reporters are not part of them. Lines headed by an entry give the natural chain unless they say otherwise; changes in a name come on top.
UniProt Q14008: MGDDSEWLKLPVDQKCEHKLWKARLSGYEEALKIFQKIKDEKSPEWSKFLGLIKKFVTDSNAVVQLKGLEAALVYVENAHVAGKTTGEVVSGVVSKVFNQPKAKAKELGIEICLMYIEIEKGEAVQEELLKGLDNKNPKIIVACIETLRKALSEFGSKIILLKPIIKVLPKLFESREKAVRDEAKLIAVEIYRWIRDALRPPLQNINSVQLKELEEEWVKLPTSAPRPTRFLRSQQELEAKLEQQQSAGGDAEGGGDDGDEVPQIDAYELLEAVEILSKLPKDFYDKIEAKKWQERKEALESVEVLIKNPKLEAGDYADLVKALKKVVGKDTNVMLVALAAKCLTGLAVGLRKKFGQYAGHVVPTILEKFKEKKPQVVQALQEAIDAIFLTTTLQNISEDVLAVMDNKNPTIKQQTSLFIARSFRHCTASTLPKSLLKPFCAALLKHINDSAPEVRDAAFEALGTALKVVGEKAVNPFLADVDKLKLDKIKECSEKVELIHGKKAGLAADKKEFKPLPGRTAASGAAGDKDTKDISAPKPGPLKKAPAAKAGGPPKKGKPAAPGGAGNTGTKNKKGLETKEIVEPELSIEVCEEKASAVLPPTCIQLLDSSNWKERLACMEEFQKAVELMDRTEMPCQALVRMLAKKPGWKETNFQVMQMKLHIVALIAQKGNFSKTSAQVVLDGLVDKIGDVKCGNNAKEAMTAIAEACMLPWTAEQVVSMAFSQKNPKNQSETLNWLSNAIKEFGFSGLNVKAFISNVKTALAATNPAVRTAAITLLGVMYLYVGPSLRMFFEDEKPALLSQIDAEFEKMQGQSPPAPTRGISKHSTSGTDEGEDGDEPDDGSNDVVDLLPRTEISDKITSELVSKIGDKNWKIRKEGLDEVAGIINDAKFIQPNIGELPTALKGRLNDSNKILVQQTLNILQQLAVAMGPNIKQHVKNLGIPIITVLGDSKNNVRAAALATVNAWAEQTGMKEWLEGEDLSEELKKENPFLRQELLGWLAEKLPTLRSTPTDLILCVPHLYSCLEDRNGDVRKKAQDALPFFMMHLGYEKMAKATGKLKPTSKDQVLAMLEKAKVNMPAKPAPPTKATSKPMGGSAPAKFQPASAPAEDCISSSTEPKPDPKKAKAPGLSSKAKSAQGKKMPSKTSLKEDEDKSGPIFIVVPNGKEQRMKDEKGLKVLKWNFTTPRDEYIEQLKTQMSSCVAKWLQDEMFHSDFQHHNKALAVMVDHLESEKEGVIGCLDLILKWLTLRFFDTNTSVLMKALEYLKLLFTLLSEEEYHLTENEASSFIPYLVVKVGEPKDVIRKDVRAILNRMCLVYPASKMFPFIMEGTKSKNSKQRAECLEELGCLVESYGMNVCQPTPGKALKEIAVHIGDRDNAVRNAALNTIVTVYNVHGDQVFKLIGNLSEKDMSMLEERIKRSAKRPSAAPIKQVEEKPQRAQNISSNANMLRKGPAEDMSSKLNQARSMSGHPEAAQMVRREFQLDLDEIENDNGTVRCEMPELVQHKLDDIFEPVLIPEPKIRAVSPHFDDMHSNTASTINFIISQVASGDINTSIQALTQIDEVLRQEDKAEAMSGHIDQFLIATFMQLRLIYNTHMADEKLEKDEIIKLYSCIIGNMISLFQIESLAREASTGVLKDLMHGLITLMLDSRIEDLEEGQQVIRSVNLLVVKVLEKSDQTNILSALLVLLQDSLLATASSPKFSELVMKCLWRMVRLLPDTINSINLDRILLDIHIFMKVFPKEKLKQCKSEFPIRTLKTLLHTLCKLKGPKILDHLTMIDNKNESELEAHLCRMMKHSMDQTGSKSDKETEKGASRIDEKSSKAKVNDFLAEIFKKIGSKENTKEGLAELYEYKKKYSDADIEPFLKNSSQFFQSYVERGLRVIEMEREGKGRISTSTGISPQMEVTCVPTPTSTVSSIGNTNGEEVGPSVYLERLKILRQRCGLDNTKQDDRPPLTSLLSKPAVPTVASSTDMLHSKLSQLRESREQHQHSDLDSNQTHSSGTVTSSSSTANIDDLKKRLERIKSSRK
UniProt Q9NZ45: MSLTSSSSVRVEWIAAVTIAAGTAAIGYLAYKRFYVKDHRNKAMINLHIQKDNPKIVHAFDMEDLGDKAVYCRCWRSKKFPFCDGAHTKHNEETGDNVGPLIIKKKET
UniProt Q9NYJ1, whole entry, looked up: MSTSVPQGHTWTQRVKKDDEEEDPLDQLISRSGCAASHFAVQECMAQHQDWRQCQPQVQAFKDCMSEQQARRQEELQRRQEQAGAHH
UniProt Q9BQ75: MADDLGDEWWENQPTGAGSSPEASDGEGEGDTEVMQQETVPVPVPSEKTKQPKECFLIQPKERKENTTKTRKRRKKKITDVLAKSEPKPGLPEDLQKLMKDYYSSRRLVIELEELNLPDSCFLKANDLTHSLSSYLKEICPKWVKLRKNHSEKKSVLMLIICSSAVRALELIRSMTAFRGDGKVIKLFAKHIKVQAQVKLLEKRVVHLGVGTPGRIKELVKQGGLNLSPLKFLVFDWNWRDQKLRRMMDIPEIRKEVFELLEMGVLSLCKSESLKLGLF
UniProt Q9H6Q4: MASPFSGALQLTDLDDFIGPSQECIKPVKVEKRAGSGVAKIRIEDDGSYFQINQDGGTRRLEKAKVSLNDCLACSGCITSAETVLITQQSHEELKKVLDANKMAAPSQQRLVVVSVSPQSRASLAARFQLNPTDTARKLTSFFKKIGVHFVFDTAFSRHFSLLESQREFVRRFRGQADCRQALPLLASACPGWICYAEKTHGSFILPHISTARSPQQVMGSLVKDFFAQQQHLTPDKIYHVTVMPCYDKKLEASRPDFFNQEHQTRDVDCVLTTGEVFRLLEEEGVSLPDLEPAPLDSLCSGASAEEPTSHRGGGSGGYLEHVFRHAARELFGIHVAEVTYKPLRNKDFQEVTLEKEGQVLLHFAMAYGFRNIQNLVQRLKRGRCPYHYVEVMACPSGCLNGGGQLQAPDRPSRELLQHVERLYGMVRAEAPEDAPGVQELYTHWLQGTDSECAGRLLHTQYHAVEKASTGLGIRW
UniProt Q9BT09: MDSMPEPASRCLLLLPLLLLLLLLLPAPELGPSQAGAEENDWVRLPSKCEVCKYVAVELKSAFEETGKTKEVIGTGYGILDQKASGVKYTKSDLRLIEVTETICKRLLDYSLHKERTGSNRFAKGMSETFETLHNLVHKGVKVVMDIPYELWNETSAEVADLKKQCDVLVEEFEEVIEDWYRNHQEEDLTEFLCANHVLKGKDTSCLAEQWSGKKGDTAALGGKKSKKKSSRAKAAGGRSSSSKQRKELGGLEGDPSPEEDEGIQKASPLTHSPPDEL
UniProt Q8WUX9: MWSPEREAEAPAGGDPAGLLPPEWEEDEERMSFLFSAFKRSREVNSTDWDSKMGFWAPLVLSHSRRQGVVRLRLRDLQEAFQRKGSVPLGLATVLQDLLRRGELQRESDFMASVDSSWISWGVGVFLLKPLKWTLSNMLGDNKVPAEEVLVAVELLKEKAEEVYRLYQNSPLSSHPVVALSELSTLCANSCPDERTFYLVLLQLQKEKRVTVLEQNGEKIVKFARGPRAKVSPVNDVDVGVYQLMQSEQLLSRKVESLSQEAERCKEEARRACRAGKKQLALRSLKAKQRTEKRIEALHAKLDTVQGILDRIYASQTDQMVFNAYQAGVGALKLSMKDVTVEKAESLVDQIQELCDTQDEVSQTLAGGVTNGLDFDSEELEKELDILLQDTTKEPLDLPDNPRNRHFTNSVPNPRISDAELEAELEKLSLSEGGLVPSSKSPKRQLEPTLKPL
UniProt Q9BW66: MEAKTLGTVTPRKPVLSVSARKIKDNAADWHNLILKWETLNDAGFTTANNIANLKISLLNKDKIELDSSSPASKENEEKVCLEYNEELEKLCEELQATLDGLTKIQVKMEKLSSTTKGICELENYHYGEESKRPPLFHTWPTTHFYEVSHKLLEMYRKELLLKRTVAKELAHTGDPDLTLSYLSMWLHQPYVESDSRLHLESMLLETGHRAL
UniProt P54105: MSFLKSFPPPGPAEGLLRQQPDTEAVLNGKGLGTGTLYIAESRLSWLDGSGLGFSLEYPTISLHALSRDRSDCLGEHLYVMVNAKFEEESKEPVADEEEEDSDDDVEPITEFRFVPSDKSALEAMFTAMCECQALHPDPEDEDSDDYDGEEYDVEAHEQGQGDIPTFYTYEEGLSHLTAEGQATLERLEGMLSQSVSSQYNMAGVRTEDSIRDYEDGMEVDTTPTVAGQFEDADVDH
UniProt P06732: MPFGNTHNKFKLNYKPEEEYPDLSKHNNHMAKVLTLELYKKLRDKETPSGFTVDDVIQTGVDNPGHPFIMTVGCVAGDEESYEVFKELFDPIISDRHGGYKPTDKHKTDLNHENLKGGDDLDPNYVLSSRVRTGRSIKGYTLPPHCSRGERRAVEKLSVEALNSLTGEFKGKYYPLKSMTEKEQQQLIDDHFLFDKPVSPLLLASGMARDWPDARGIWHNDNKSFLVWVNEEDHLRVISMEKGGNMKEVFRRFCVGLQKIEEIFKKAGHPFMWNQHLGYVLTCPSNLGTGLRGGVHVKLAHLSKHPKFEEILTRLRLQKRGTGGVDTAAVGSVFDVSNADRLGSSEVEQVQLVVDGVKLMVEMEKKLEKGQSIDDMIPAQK
UniProt O75175, whole entry, looked up: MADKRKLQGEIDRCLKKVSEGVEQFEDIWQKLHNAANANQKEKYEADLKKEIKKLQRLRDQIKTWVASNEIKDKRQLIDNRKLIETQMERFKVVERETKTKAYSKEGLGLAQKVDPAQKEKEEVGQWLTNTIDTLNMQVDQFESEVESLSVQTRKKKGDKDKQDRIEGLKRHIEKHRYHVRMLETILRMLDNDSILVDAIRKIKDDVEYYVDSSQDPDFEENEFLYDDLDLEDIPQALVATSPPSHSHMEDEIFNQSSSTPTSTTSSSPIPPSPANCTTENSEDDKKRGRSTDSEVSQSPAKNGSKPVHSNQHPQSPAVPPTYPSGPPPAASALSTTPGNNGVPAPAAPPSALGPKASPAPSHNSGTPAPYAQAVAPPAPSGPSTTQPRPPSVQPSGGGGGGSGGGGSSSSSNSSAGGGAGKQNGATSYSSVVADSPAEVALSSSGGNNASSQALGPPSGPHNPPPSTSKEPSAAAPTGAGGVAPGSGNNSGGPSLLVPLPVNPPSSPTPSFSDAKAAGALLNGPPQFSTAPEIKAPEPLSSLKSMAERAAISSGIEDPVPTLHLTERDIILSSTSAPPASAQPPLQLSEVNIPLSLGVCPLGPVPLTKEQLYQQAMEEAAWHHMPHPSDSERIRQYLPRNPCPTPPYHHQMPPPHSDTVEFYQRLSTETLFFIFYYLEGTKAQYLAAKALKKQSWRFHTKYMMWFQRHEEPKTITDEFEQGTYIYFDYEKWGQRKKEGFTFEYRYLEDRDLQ
UniProt Q9H078: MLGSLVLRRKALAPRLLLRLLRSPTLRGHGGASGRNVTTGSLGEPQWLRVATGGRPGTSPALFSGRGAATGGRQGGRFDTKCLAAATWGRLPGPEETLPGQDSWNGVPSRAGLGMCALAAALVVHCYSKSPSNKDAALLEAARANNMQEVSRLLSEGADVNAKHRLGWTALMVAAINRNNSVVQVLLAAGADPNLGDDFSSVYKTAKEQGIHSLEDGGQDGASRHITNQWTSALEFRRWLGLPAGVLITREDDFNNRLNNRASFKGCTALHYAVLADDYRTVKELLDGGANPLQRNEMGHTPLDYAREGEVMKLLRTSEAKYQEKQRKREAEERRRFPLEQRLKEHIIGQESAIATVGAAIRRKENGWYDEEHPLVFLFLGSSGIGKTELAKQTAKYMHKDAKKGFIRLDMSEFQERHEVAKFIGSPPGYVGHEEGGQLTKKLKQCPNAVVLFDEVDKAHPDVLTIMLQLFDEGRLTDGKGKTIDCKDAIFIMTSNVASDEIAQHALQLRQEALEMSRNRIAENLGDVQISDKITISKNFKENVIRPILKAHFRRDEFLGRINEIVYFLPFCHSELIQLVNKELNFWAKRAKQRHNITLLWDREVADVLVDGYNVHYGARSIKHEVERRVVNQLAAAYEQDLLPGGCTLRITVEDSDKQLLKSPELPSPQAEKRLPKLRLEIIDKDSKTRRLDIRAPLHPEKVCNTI
UniProt Q96BR5: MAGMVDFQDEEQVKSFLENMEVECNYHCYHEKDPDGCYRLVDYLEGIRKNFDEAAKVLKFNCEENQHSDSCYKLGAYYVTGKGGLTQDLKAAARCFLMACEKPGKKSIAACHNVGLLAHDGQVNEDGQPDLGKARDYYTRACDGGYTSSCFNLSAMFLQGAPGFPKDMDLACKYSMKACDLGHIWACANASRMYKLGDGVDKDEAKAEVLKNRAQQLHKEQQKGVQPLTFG
UniProt O76071: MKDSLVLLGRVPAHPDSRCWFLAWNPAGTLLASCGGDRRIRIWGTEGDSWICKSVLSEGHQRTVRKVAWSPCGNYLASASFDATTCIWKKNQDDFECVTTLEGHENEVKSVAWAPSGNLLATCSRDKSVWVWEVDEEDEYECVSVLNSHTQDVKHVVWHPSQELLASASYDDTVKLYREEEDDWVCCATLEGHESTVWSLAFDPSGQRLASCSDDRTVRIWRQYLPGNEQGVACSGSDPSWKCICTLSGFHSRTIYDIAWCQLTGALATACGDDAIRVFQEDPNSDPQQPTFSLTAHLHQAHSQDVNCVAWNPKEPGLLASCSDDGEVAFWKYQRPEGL

Key:
Assay in all cases: log2 fold change, soluble protein after heating vs DMSO (PISA); higher = thermal stabilisation; K562 cells, 10 uM, 30 min; active = over 0.2 and 3.5 SD of the protein, either way, in both replicates (recomputed)
[1] = compound: CS(=O)(=O)c1ccc(-c2cnc(N)c(C(=O)Nc3ccccc3)n2)cc1
Summary of the method: (§1)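 K562 cells at 2×10^6 cells/mL were exposed to 10 μM compound for 30 min, then aliquots were heated for 3 min across 48°C-58°C, pooled, and extracted in PBS containing 0.5% NP-40 at 4°C. The supernatant after 21,000xg for 90 min was taken as soluble protein and measured by TMTpro 16plex LC-MS/MS with channel sums equalised. Thermal stability is reported relative to control samples, with values from duplicates. Fold changes are given on a log2 scale.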

[2] = compound: C[C@@H](Oc1cc(-c2cnn(C3CCNCC3)c2)cnc1N)c1c(Cl)ccc(F)c1Cl [crizotinib]
Summary of the method: as §1

[3] = compound: C[C@@H]1COCCN1C2=NC(=NC(=C2)C3(CC3)S(=O)(=O)C)C4=C5C=CNC5=CC=C4
Summary of the method: as §1

[4] = compound: C[C@H](C1=CC=C(C=C1)C(=O)NC2=C3C=CNC3=NC=C2)N
Summary of the method: as §1

[5] = compound: C[C@H](Nc1ncnc2nc[nH]c12)c1cc2cccc(Cl)c2c(=O)n1-c1ccccc1 [duvelisib]
Summary of the method: as §1

[6] = compound: Cc1cc(Nc2cc(CN3CCOCC3)c3nc(C)c(Cc4ccc(Cl)cc4F)n3n2)n[nH]1 [gandotinib]
Summary of the method: as §1

[7] = compound: Cc1cc(Nc2cc(N3CCN(C)CC3)nc(Sc3ccc(NC(=O)C4CC4)cc3)n2)n[nH]1 [tozasertib]
Summary of the method: as §1

[8] = compound: Cc1cc(SCc2sc(-c3ccc(C(F)(F)F)cc3)nc2C)ccc1OCC(=O)O
Summary of the method: as §1

[9] = compound: Cc1ccc(-n2nc(C(C)(C)C)cc2NC(=O)Nc2ccc(OCCN3CCOCC3)c3ccccc23)cc1 [doramapimod]
Summary of the method: as §1

[10] = compound: Cc1ccc(C(=O)N(CCCN)[C@@H](c2nc3cc(Cl)ccc3c(=O)n2Cc2ccccc2)C(C)C)cc1 [ispinesib]
Summary of the method: as §1

Row | Target | log2 fold change [1] | log2 fold change [2] | log2 fold change [3] | log2 fold change [4] | log2 fold change [5] | log2 fold change [6] | log2 fold change [7] | log2 fold change [8] | log2 fold change [9] | log2 fold change [10]
1 | CMC2 (UniProt Q9NRP2) | inactive: -0.035 | inactive: -0.012 | inactive: 0.071 | inactive: -0.035 | inactive: 0.048 | inactive: -0.028 | inactive: 0.05 | inactive: -0.113 | inactive: -0.05 | inactive: 0.066
2 | CNOT6L (UniProt Q96LI5) | inactive: 0.024 | inactive: -0.013 | inactive: 0.037 | inactive: 0.016 | inactive: 0.021 | inactive: 0.019 | inactive: -0.062 | inactive: 0.05 | inactive: -0.007 | inactive: -0.019
3 | CKAP5 (UniProt Q14008) | inactive: -0.038 | inactive: -0.215 | inactive: -0.015 | inactive: 0.144 | inactive: -0.055 | inactive: -0.06 | inactive: -0.026 | inactive: 0.116 | inactive: 0.129 | inactive: -0.217
4 | CISD1 (UniProt Q9NZ45) | inactive: 0.038 | inactive: 0.054 | inactive: 0.035 | inactive: -0.052 | inactive: -0.03 | inactive: 0.053 | inactive: -0.026 | inactive: -0.027 | inactive: 0.002 | inactive: 0.038
5 | CIAPIN1 (UniProt Q6FI81) | inactive: -0.021 | inactive: 0.056 | inactive: 0.064 | inactive: -0.104 | inactive: 0.029 | inactive: -0.118 | inactive: 0.044 | inactive: 0.009 | inactive: -0.047 | inactive: 0.053
6 | COA1 (UniProt Q9GZY4) | inactive: 0.04 | inactive: 0.002 | inactive: 0.085 | inactive: -0.035 | inactive: 0.139 | inactive: 0.063 | inactive: -0.032 | inactive: 0.025 | inactive: -0.029 | inactive: -0.028
7 | COA4 isoform 2 (UniProt Q9NYJ1) | inactive: -0.121 | inactive: 0.19 | inactive: 0.069 | inactive: -0.019 | inactive: -0.015 | inactive: -0.012 |  | inactive: -0.066 | inactive: 0.017 | inactive: 0.21
8 | CMSS1 (UniProt Q9BQ75) | inactive: -0.076 | inactive: -0.06 | inactive: 0.017 | inactive: 0.181 | inactive: -0.069 | inactive: -0.069 | inactive: 0.11 | inactive: -0.012 | inactive: 0.038 | inactive: -0.057
9 | CIAO3 (UniProt Q9H6Q4) | inactive: 0.058 | inactive: -0.02 | inactive: 0.078 | inactive: 0.011 | inactive: 0.109 | inactive: -0.067 | inactive: -0.001 | inactive: 0.01 | inactive: 0 | inactive: 0.013
10 | CNPY2 (UniProt Q9Y2B0) | inactive: 0.027 | inactive: 0.026 | inactive: -0.018 | inactive: 0.042 | inactive: 0.076 | inactive: -0.007 | inactive: -0.002 | inactive: 0.026 | inactive: -0.046 | inactive: 0.021
11 | CLUH (UniProt O75153) | inactive: -0.001 | inactive: -0.094 | active: 0.348 | inactive: 0.094 | active: 0.698 | inactive: -0.037 |  | inactive: 0.01 | inactive: 0.02 | inactive: 0.043
12 | CNNM2 (UniProt Q9H8M5) | inactive: -0.155 | inactive: 0.075 | inactive: -0.044 | inactive: 0.295 | inactive: -0.134 | inactive: 0.031 | inactive: -0.04 | inactive: 0.278 | inactive: 0.128 | inactive: 0.216
13 | CNPY3 (UniProt Q9BT09) | inactive: 0.007 | inactive: 0.081 | inactive: 0.015 | inactive: 0.024 | inactive: 0.089 | inactive: -0.013 | inactive: -0.028 | inactive: -0.049 | inactive: -0.015 | inactive: 0.014
14 | CLCN6 isoform 5 (UniProt P51797) | inactive: -0.093 | inactive: -0.372 | inactive: -0.017 | inactive: 0.17 | inactive: 0.107 | inactive: 0.061 |  | inactive: 0.09 | inactive: 0.052 | inactive: -0.457
15 | CHMP7 (UniProt Q8WUX9) | inactive: 0.038 | inactive: -0.259 | inactive: 0.042 | inactive: 0.044 | inactive: 0.036 | inactive: -0.046 | inactive: 0.13 | inactive: 0.22 | inactive: -0.038 | inactive: -0.193
16 | CLASP1 (UniProt Q7Z460) | inactive: -0.034 | inactive: -0.294 | inactive: 0.1 | inactive: 0.153 | inactive: -0.03 | inactive: -0.261 | inactive: -0.064 | inactive: 0.071 | inactive: 0.007 | inactive: -0.117
17 | CNOT10 isoform 6 (UniProt Q9H9A5) | inactive: 0.007 | inactive: -0.116 | inactive: -0.061 | inactive: 0.019 | inactive: -0.078 | inactive: 0.028 | inactive: 0.015 | inactive: 0.064 | inactive: 0.047 | inactive: -0.052
18 | CINP isoform 3 (UniProt Q9BW66) | inactive: -0.011 | inactive: -0.002 | inactive: -0.054 | inactive: -0.051 | inactive: 0.066 | inactive: 0.033 | inactive: -0.005 | inactive: -0.043 | inactive: 0.006 | inactive: -0.058
19 | CNTNAP4 (UniProt Q9C0A0) | inactive: -0.176 | inactive: 0.089 | inactive: 0.016 | inactive: 0.256 | inactive: -0.142 | inactive: 0.147 | inactive: 0.062 | inactive: -0.005 | inactive: 0.14 | inactive: -0.043
20 | CLUH, A0A494C0R8 | inactive: 0.055 | active: -0.575 | inactive: 0.205 | inactive: 0.037 | active: 0.646 | inactive: -0.214 |  | inactive: -0.031 | inactive: 0.113 | inactive: -0.028
21 | CLNS1A (UniProt P54105) | inactive: 0.012 | inactive: 0.053 | inactive: 0.021 | inactive: -0.051 | inactive: 0.008 | inactive: 0.018 | inactive: 0.046 | inactive: 0.064 | inactive: -0.006 | inactive: 0.066
22 | CIAO2A (UniProt Q9H5X1) | inactive: -0.025 | inactive: -0.015 | inactive: -0.024 | inactive: -0.059 | inactive: 0.099 | inactive: -0.127 | inactive: -0.022 | inactive: 0.01 | inactive: -0.009 | inactive: -0.104
23 | CLIP1 isoform 1 (UniProt P30622) | inactive: -0.001 | inactive: 0.039 | inactive: 0.003 | inactive: -0.066 | inactive: 0.001 | inactive: -0.012 | inactive: 0.004 | inactive: -0.012 | inactive: -0.006 | inactive: 0.034
24 | CKM (UniProt P06732) | inactive: 0.039 | inactive: -0.225 | inactive: 0.017 | inactive: -0.129 | inactive: -0.016 | inactive: -0.099 | inactive: -0.046 | inactive: -0.047 | inactive: -0.011 | inactive: 0.006
25 | CNOT3 (UniProt O75175) | inactive: -0.023 | inactive: -0.053 | inactive: -0.034 | inactive: -0.01 | inactive: 0.029 | inactive: -0.077 | inactive: 0.051 | inactive: 0.064 | inactive: -0.021 | inactive: -0.002
26 | CNNM4 (UniProt Q6P4Q7) | inactive: 0.026 | inactive: -0.066 | inactive: 0.05 | inactive: 0.028 | inactive: 0.049 | inactive: -0.032 | inactive: -0.028 | inactive: 0.314 | inactive: -0.039 | inactive: 0.196
27 | CLPB isoform 2 (UniProt Q9H078) | inactive: 0.062 | inactive: -0.119 | inactive: 0.044 | inactive: 0 | inactive: -0.035 | inactive: -0.07 | inactive: -0.017 | inactive: 0.076 | inactive: 0.022 | inactive: -0.046
28 | COA7 (UniProt Q96BR5) | inactive: -0.039 | inactive: -0.013 | inactive: 0.062 | inactive: -0.048 | inactive: 0.014 | inactive: -0.093 | inactive: 0.016 | inactive: -0.034 | inactive: -0.064 | inactive: 0.065
29 | CIAO1 (UniProt O76071) | inactive: 0.01 | inactive: 0.002 | inactive: 0.104 | inactive: -0.02 | inactive: 0.086 | inactive: 0.001 | inactive: -0.039 | inactive: 0.057 | inactive: -0.02 | inactive: -0.059
30 | CLIC4 (UniProt Q9Y696) | inactive: 0.032 | inactive: 0.051 | inactive: 0.129 | inactive: -0.011 | inactive: 0.064 | inactive: 0.017 | inactive: 0.026 | inactive: 0.003 | inactive: -0.033 | inactive: 0.059

Shown with tabs: part of the list above
Row	Target	log2 fold change [1]	log2 fold change [2]	log2 fold change [3]	log2 fold change [4]	log2 fold change [5]	log2 fold change [6]	log2 fold change [7]	log2 fold change [8]	log2 fold change [9]	log2 fold change [10]
11	CLUH (UniProt O75153)	inactive: -0.001	inactive: -0.094	active: 0.348	inactive: 0.094	active: 0.698	inactive: -0.037		inactive: 0.01	inactive: 0.02	inactive: 0.043
22	CIAO2A (UniProt Q9H5X1)	inactive: -0.025	inactive: -0.015	inactive: -0.024	inactive: -0.059	inactive: 0.099	inactive: -0.127	inactive: -0.022	inactive: 0.01	inactive: -0.009	inactive: -0.104
